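Plate-reader measure of the Venus reporter marking one vaccinia stage in infected cells (the cell line is not named here); read time unknown. The test concentration is not given here. Percent change in Venus reporter signal; lower (more negative) values mean stronger inhibition of that viral stage.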

Values are in %. The controls that fix the scale are not given here. Common to all entries: measured here: Venus reporter, other viral stage. This is a side read-out of the assay, for part of the compounds, not drawn at random.

compound: O=C(Nc1ccc2c(c1)[C@@H]1C[C@H](CC(=O)N3CCc4ccccc4C3)O[C@H](CO)[C@@H]1O2)Nc1ccccc1F
activity change (Venus) (%): -32.97

compound: Cc1noc(C)c1S(=O)(=O)N(C)C[C@H]1OCCCC[C@@H](C)Oc2ccc(NS(=O)(=O)c3ccc(Cl)cc3)cc2C(=O)N([C@@H](C)CO)C[C@@H]1C
activity change (Venus) (%): -38.93

compound: C[C@@H]1CN([C@H](C)CO)C(=O)c2cc(NC(=O)C3CCCCC3)ccc2O[C@@H](C)CCCCO[C@H]1CN(C)C(=O)NC1CCCCC1
activity change (Venus) (%): -38.64

compound: C[C@@H]1CN([C@@H](C)CO)S(=O)(=O)c2ccc(-c3ccncc3)cc2O[C@@H]1CN(C)C(=O)Nc1ccc(C(F)(F)F)cc1
activity change (Venus) (%): -35.16

compound: COc1ccc(S(=O)(=O)N(C)C[C@H]2OCCCC[C@@H](C)Oc3ccc(NC(=O)NC(C)C)cc3C(=O)N([C@H](C)CO)C[C@H]2C)cc1
activity change (Venus) (%): -26.63

compound: Cn1cnc(S(=O)(=O)N2CCCCN3[C@@H](CO)[C@@H](c4ccc(C#CC5CCCC5)cc4)[C@@H]3C2)c1
activity change (Venus) (%): -48.15

compound: C[C@@H]1CN([C@H](C)CO)C(=O)c2cc(NC(=O)NC3CCCCC3)ccc2O[C@H]1CN(C)Cc1ccc(-c2ccccc2)cc1
activity change (Venus) (%): -23.84

compound: C[C@@H]1CN([C@@H](C)CO)C(=O)c2cc(NS(=O)(=O)c3ccc(Cl)cc3)ccc2O[C@@H](C)CCCCO[C@H]1CN(C)C(=O)CCC(F)(F)F
activity change (Venus) (%): -34.76

compound: C[C@@H]1CN([C@H](C)CO)S(=O)(=O)c2ccc(C3=CCCCC3)cc2O[C@H]1CN(C)Cc1ccccc1F
activity change (Venus) (%): -63.88

compound: C[C@@H]1CN([C@H](C)CO)C(=O)c2c(c3ccccc3n2C)-c2ccccc2CO[C@H]1CN(C)S(=O)(=O)c1ccsc1
activity change (Venus) (%): -31.54

compound: COc1ccc(S(=O)(=O)N(C)C[C@H]2OCCCC[C@@H](C)Oc3ccc(NS(=O)(=O)c4ccc(Cl)cc4)cc3C(=O)N([C@@H](C)CO)C[C@H]2C)cc1
activity change (Venus) (%): -18.15

compound: O=C(Nc1ccc2c(c1)OCO2)N1C[C@@H]2N[C@H](C1)C2c1ccc(C=Cc2ccccc2)cc1 (stereo partly specified)
activity change (Venus) (%): -85.73

compound: C[C@@H]1CN([C@H](C)CO)C(=O)c2cc(C#CC3CCCCC3)cnc2O[C@@H]1CN(C)S(=O)(=O)c1ccccc1
activity change (Venus) (%): -42.67

compound: Cc1noc(C)c1S(=O)(=O)Nc1ccc2c(c1)C(=O)N([C@H](C)CO)C[C@@H](C)[C@@H](CN(C)Cc1ccc(C(F)(F)F)cc1)OCCCC[C@@H](C)O2
activity change (Venus) (%): -67.81

compound: C[C@H](CO)N1C[C@H](C)[C@H](CN(C)Cc2ccc(F)cc2)Oc2ncc(/C=C/c3ccccc3)cc2C1=O
activity change (Venus) (%): -31.73

compound: C[C@H](CO)N1C[C@H](C)[C@@H](CN(C)C(=O)Nc2cc(F)ccc2F)Oc2cc(/C=C/c3ccccc3)ccc2S1(=O)=O
activity change (Venus) (%): -24.54

compound: Cc1ccc(S(=O)(=O)Nc2ccc3c(c2)C(=O)N([C@@H](C)CO)C[C@H](C)[C@@H](CN(C)C(=O)Cc2ccccc2)OCCCC[C@@H](C)O3)cc1
activity change (Venus) (%): -35.75

compound: COc1ccc2c3c(n(C)c2c1)[C@H](CO)N(C(=O)Nc1ccc(F)cc1)CC31CN(Cc2cccnc2)C1
activity change (Venus) (%): -41.76

compound: C[C@H](NC(=O)C[C@@H]1CC[C@@H]2[C@H](COC[C@@H](O)CN2C(=O)Nc2cccc(F)c2)O1)c1ccccc1
activity change (Venus) (%): -35.87

compound: C[C@H]1CCCCO[C@H](CN(C)C(=O)Cc2ccccc2)[C@@H](C)CN([C@@H](C)CO)C(=O)c2cc(NC(=O)Cc3ccccc3)ccc2O1
activity change (Venus) (%): -23.74

The first 2 entries again:

O=C(Nc1ccc2c(c1)[C@@H]1C[C@H](CC(=O)N3CCc4ccccc4C3)O[C@H](CO)[C@@H]1O2)Nc1ccccc1F read activity change (Venus) -32.97%.
Cc1noc(C)c1S(=O)(=O)N(C)C[C@H]1OCCCC[C@@H](C)Oc2ccc(NS(=O)(=O)c3ccc(Cl)cc3)cc2C(=O)N([C@@H](C)CO)C[C@@H]1C read activity change (Venus) -38.93%.

Data taken from PubChem BioAssay AID1053133, deposited by Broad Institute (2014).